# Results taken from PubChem BioAssay AID2685 (National Center for Advancing Translational Sciences (NCATS), 2010).
# Some of the results follow. Further columns of the screen follow, without active or inactive calls. The list favours compounds with an active or inconclusive main result. The note in brackets gives the kind of curve behind each potency; many fits are weak.
# Experiment: qHTS Assay for Lipid Storage Modulators in Drosophila S3 Cells;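 for cell number change: cells counted by Cell Tracker Red CMTPX staining in the red channel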
# Settings: BODIPY lipid droplet fluorescence, 18-24 h; for cell number change: measured here: cell count max response, cells fed with added oleic acid
# How it was run: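 Drosophila S3 cells loaded with oleic acid (400 uM, as added) and compounds at several concentrations; lipid droplets imaged by 488-nm laser-scanning cytometry, 500–530 nm intensity and object ratio to cell channel. Percent activity normalized to 20 uM Triacsin C.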
# [1] = measured here: cell number channel AC50, cells fed with added oleic acid
# [2] = measured here: lipid fluorescence (Fed channel) AC50, cells fed with added oleic acid
Structure (SMILES),cell number change,AC50 [1],AC50 [2]
CCc1ccc(NC(=O)c2cnc(N3CCN(c4ccccn4)CC3)c3ccccc23)cc1,-30.5%,"23.1 µM [falling, single point]",
CCC(=O)Nc1cc(C)c(NC(=O)c2ccccc2OC)cn1,11%,,"0.366 µM [rising, full curve]"
CCN1CCc2c(sc(NC(=S)NC(=O)c3ccco3)c2C(N)=O)C1,-40.1%,"23.1 µM [falling, single point]",
CCOC(=O)C1=C(COC(=O)/C=C/c2cccc(Br)c2)NC(=O)NC1C (stereo not drawn),-6.74%,,"3.66 µM [falling, full curve]"
O=C(COc1ccccc1Cl)NNC(=O)c1ccc(-n2cncn2)c([N+](=O)[O-])c1,-8.2%,"2.91 µM [falling, partial curve, poor fit]",
O=C(c1cccc(C(F)(F)F)c1)c1c[nH]c(C(=O)NCC2CCCO2)c1 (stereo not drawn),,,"29.1 µM [rising, single point]"
CC1=NN(c2ccccc2)C(=O)C1C(=O)c1ccc(Cl)cc1 (stereo not drawn),,,"29.1 µM [falling, single point]"
Cc1noc(C(F)(F)F)c1C(=O)NNC(=O)c1cccc(C(F)(F)F)c1,,"0.517 µM [rising, single point]",
O=C(CN1CCN(c2ccccn2)CC1)Nc1cccc(S(=O)(=O)N2CCCC2)c1,15%,,
Cc1ccc(N/N=C(\C#N)C(N)=S)c(C)c1,21.8%,,"9.2 µM [rising, partial curve, poor fit]"
CCOc1ccc(-n2nc3c(SCCN4CCCC4)nnc(C)c3c2C)cc1,,"6.51 µM [rising, single point]","6.51 µM [rising, single point]"
O=C1CC(NCc2ccncc2)C(=O)N1c1ccc(Cl)cc1 (stereo not drawn),-17.7%,"0.82 µM [falling, single point]","32.6 µM [rising, partial curve, poor fit]"
Cc1cn2c(N)c(C=C3C=C(Cl)C(=O)C(Cl)=C3)c(=O)nc2s1,31.6%,"10.3 µM [rising, partial curve, poor fit]","16.4 µM [rising, partial curve]"
COc1ccccc1CNC(=O)C(C)Sc1ccsc1[N+](=O)[O-] (stereo not drawn),,,"29.1 µM [rising, single point]"
CC(=O)N=C1SC2CS(=O)(=O)CC2N1c1c(Cl)cccc1Cl (stereo not drawn),1.44%,,
Cc1c(Cl)cccc1NC(=S)NCCN1CCOCC1,17.2%,"0.13 µM [falling, full curve, poor fit]",
O=C(N/N=C/c1cccc(Br)c1)c1ccc(Br)cc1,20.6%,,
CC(OC(=O)Cn1cnc2c1c(=O)n(C)c(=O)n2C)C(=O)NC(C)c1ccc(Cl)cc1Cl (stereo not drawn),-31.5%,"13 µM [falling, partial curve, poor fit]",
Cc1ccc(C(=O)OC2OC(=O)C(Cl)=C2N2CCOCC2)cc1 (stereo not drawn),-20.5%,"1.03 µM [falling, full curve, poor fit]","4.61 µM [falling, single point]"

# Sorted by molecular weight (ascending): 5 of the compounds above.
Structure (SMILES),cell number change,AC50 [1],AC50 [2]
Cc1ccc(N/N=C(\C#N)C(N)=S)c(C)c1,21.8%,,"9.2 µM [rising, partial curve, poor fit]"
Cc1ccc(C(=O)OC2OC(=O)C(Cl)=C2N2CCOCC2)cc1 (stereo not drawn),-20.5%,"1.03 µM [falling, full curve, poor fit]","4.61 µM [falling, single point]"
Cc1cn2c(N)c(C=C3C=C(Cl)C(=O)C(Cl)=C3)c(=O)nc2s1,31.6%,"10.3 µM [rising, partial curve, poor fit]","16.4 µM [rising, partial curve]"
Cc1noc(C(F)(F)F)c1C(=O)NNC(=O)c1cccc(C(F)(F)F)c1,,"0.517 µM [rising, single point]",
CCOc1ccc(-n2nc3c(SCCN4CCCC4)nnc(C)c3c2C)cc1,,"6.51 µM [rising, single point]","6.51 µM [rising, single point]"

# (listing goes on)

Structure (SMILES),cell number change,AC50 [1],AC50 [2]
COc1ccccc1-c1noc(-c2cccnc2)n1,,,"0.58 µM [falling, single point]"
Cc1c(Cc2ccccc2)c(=O)oc2cc(OCc3nn[nH]n3)ccc12,3.32%,,
CCOC(=O)C(C)C1(O)c2ccccc2-c2ncccc21 (stereo not drawn),-10.6%,,"0.146 µM [falling, full curve, poor fit]"
COc1cc(C(=S)N2CCOCC2)cc(OC)c1OC(=O)c1cccc(C)c1,-8.15%,,"29.1 µM [falling, single point]"
O=C(Nc1ccc(-n2cccn2)cc1)C1CCCCN1Cc1cccc2cccnc12 (stereo not drawn),13.2%,,"6.51 µM [rising, single point]"
COC(=O)c1ccccc1S(=O)(=O)N1CCC(C(=O)OCC(=O)NCC(F)(F)F)CC1,-49.5%,"16.4 µM [falling, single point]","18.4 µM [falling, single point]"
Nc1c(C(=O)Nc2ccccc2Cl)nnn1-c1ccc2c(c1)OCCO2,134%,"29.1 µM [rising, single point]",
C/C(CCc1ccccc1)=N\NC(=O)COc1ccccc1C,-43.7%,,"22.4 µM [rising, single point]"
Cc1ccc(NC(=S)NC2CC3CCC(C2)N3Cc2ccco2)c(C)c1 (stereo not drawn),-72.8%,"23.1 µM [falling, partial curve, poor fit]","11.6 µM [falling, partial curve, poor fit]"
NS(=O)(=O)c1ccc(CCNC(=O)C2Cc3ccccc3CN2C(=O)c2ccco2)cc1 (stereo not drawn),,"0.651 µM [falling, single point]","0.731 µM [falling, single point]"
COc1ccc(/C=C2\SC(N)=NC2=O)cc1,0.549%,,"29.1 µM [rising, single point]"
CSc1ccc(/C=N\Nc2nncn2N)cc1,-67.6%,"29.1 µM [falling, single point]","29.1 µM [falling, single point]"
O=C(O)COCCN1CCN(C(c2ccccc2)c2ccc(Cl)cc2)CC1 (stereo not drawn),-18.8%,"0.00411 µM [falling, full curve, poor fit]","0.00461 µM [falling, full curve, poor fit]"
CC(=O)n1cc([C@H]2C=C(C(=O)N3CCN(Cc4ccc5c(c4)OCO5)CC3)O[C@@H](OCc3ccc(CO)cc3)C2)c2ccccc21,-42.3%,"20.6 µM [falling, partial curve, poor fit]","23.1 µM [falling, single point]"
CC(C)C(CCNC(=O)CN1C(=O)c2ccccc2C1=O)c1ccco1 (stereo not drawn),-33.3%,"2.06 µM [falling, partial curve]","1.84 µM [falling, full curve, poor fit]"
CCOc1ccc(-n2cnc3sc(C)c(C)c3c2=O)cc1,23.3%,"0.651 µM [rising, full curve, poor fit]",
O=c1[nH]c(CSc2ncc(C(F)(F)F)cc2Cl)nc2ccccc12,22.3%,"0.58 µM [rising, single point]",
COc1ccc(CCN2CC(C(=O)OC(C)C(=O)Nc3cccc(Cl)c3)CC2=O)cc1OC (stereo not drawn),-14.1%,,"10.3 µM [rising, partial curve]"
COc1nc(N)c(S(=O)(=O)c2ccc(C)cc2)cc1C#N,,,"29.1 µM [rising, single point]"

Structure (SMILES),cell number change,AC50 [1],AC50 [2]
CCOc1ccc(CNC(c2ccccc2)c2ccccc2)cc1,-1.37%,,"29.1 µM [rising, single point]"
Cc1ccc(NC(=O)NC2CCN(CC(=O)Nc3nccs3)CC2)cc1,-11.1%,,"0.146 µM [rising, full curve]"
COc1ccc(C(CC(=O)N2CCCC2)c2c(OC)cc(OC)c3ccc(=O)oc23)cc1 (stereo not drawn),8.48%,,"20.6 µM [rising, single point]"
CCC(C)(C)NC(=O)C(c1cccnc1)N(CCOC)C(=O)Cn1nnc2ccccc21 (stereo not drawn),-0.457%,"0.0731 µM [rising, full curve, poor fit]",
CSc1ccccc1OCc1cc(C(=O)NCCCn2nc(C)cc2C)no1,-14.4%,"1.64 µM [rising, partial curve, poor fit]",
Cc1nc(NC(=O)C2CC2)sc1C,-2.44%,"1.84 µM [falling, partial curve]","1.84 µM [falling, partial curve]"
COc1ccc(NC(=S)N2CCC(NC(=O)c3cccc(C)c3)CC2)cc1,1.28%,,"0.411 µM [falling, partial curve]"
C[C@H](NC(=O)c1ccccc1)C(=O)OCC(=O)Nc1ccc2c(c1)OCO2,-16.4%,,"0.411 µM [falling, full curve, poor fit]"
CCCc1ncc(CN2CCCC(C(=O)Nc3ccc(-c4cccc(OC)c4)cc3)C2)cn1 (stereo not drawn),-17.4%,,
CCC(C)NC(=O)CN(C1CCCCC1)S(=O)(=O)c1ccc(F)cc1 (stereo not drawn),21.1%,"2.06 µM [rising, partial curve, poor fit]",
CCOc1ccc(Br)cc1C1=CC(=O)C[C@H](c2ccc(OC)cc2)C1,-30.8%,"25.9 µM [falling, single point]",
O=c1[nH]c(-c2ccc(Cl)cc2)nc2c1cnn2-c1ccccc1,-23%,,"20.6 µM [falling, partial curve]"
CCCCn1nc(C(=O)NCc2ccccc2CN2CCCC2)c2ccccc2c1=O,5.83%,,"0.731 µM [rising, full curve]"
COc1ccc(N(C(=O)Cn2nnc(-c3ccc(F)cc3)n2)C(C)C(=O)NC2CCCC2)cc1OC (stereo not drawn),2.82%,,"32.6 µM [falling, single point]"
CC(C)c1nnc(NC(=O)CSc2ccccc2)s1,21%,,"0.164 µM [rising, full curve, poor fit]"
COc1ccc(CC(=O)Nc2nnc(C)s2)cc1,25.3%,,"18.4 µM [rising, single point]"
N#CC(C#N)=CC1=C2OC(c3ccccc3)=CC(c3ccccc3)=C2CCC1,14.7%,"0.411 µM [rising, partial curve, poor fit]","0.461 µM [rising, partial curve]"
Cc1ccc(N2CCN(S(=O)(=O)c3ccc4oc(=O)ccc4c3)CC2)cc1Cl,34.6%,"1.03 µM [rising, full curve, poor fit]",
COc1ccc(C2/C(=C(/O)c3ccc4c(c3)CC(C)O4)C(=O)C(=O)N2CCN2CCOCC2)cc1 (stereo not drawn),-11.4%,,
